Data as given in PubChem BioAssay AID1347076 (National Center for Advancing Translational Sciences (NCATS), 2019).
Where “and” joins values, the source holds several entries; their conditions need not be identical. Equal entries are not always repeated. Screen size: about 400,000 compounds; about 13,000 (3.2%) were called active. The inconclusive results got no clear call from the source; some entries with a clear call stand among them for comparison. The call rests on the fitted dose curve; in most records, active means well fitted cell-killing curve with a large enough effect; inconclusive means small, poorly fitted or top-dose-only effect, or effect the other way; inactive means flat fitted curve, though single readings scatter. Potencies of inconclusive entries are doubtful fits and often do not repeat.
On the % scale 0 is the no-effect control and ±100 the full control effect; potency means the concentration at half of the fitted maximal effect.

Assay: qHTS assay for MDR1-selective chemotherapeutics: Primary screen using the drug-selected MDR subline cells KB-V1; further: nearly all actives have a fitted effect of over 60% in size
Conditions: KB-V1 MDR cells viability, CellTiter-Glo, 72 h; activity change, negative = cytotoxicity: at 46.1 µM (top of the series)
In short: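 In this primary screen, KB-V1 cells overexpressing P-gp are incubated with library compounds (lowest to highest concentration) for 72 h at 37 degrees C before a luminescent ATP viability read.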
For CC1CCN(S(=O)(=O)c2ccc(NC(=O)CNC3CCCCC3)cc2)CC1, the Potency was inconclusive: 32.6 µM [rising, single point].
With Cn1c(Cn2c(=O)sc3ccccc32)nnc1SCC(=O)NCc1ccc2c(c1)OCO2 the Potency was inconclusive: 3.66 µM [rising, partial curve, poor fit].
In the case of O=C(Cc1ccc(F)cc1)N1CCN(c2ccc(F)cc2)CC1, the Potency is reported as inconclusive: 23.1 µM [cytotoxic, single point].
In the case of COc1ccc(NC(=O)CCC(=O)N/N=C/c2ccc([N+](=O)[O-])s2)cc1, the Potency is reported as inconclusive: 29.1 µM [cytotoxic, single point].
With Nc1nc(N)c(N=O)c(OCC2CCCCC2)n1 the Potency was inconclusive: 25.9 µM [cytotoxic, single point].
In the case of COC1=C(OC)C(=O)C(Sc2ccc3ccccc3c2)=CC1=O, the Potency is reported as active: 2.59 µM.
For CCCOc1ccc(CN(C)c2ncnc(N)n2)cc1, the Potency was inconclusive: 16.4 µM [cytotoxic, partial curve].
For COc1ccccc1N(C)S(=O)(=O)c1ccc(Cl)c(C(=O)NCc2cccnc2)c1, the Potency was “inactive”.
With COc1ccc(CC(=O)OCn2nnc3ccccc3c2=O)cc1OC the Potency was “inactive”.
For COc1ccc(NC(=O)c2ccc(-c3ccc([N+](=O)[O-])cc3)o2)cc1OC, the Potency was inconclusive: 0.731 µM [cytotoxic, full curve].
In the case of Cc1ccc(Nc2ccccc2N)cc1, the Potency is reported as inconclusive: 16.4 µM [cytotoxic, single point].
For O=C(Nc1ccc(NC(=O)c2ccccn2)cc1)C(=O)Nc1ccc2c(c1)OCCO2, the Potency was “inactive”.
With O=c1cc(-c2ccc3c(c2)OCCO3)oc2ccc(Cl)cc12 the Potency was inconclusive: 2.06 µM [cytotoxic, partial curve, poor fit].
With c1coc(CNc2c3c(nc4ccccc24)CCC3)c1 the Potency was inconclusive: 29.1 µM [cytotoxic, single point].
For O=C(NC(=S)Nc1ccc(CN2CCOCC2)cc1)c1ccc2c(c1)OCCO2, the Potency was active: 20.6 µM.
In the case of O=C(CCCN1C(=O)/C(=C/c2cccs2)SC1=S)Nc1cccc(C(=O)O)c1, the Potency is reported as inconclusive: 9.2 µM [rising, partial curve, poor fit].
For COC(=O)c1ccccc1NC(=O)c1nc(-c2ccc(C)cc2)n2c1CCCCC2, the Potency was active: 14.6 µM.
In the case of CCCS(=O)(=O)Nc1ccc(Nc2c3ccccc3nc3ccccc23)c(OC)c1, the Potency is reported as active: 23.1 µM.
In the case of COc1ccc(CNC(=O)c2noc3c2CCCCC3)cc1, the Potency is reported as “inactive”.
In the case of CC(C)(C)NCCOCCOc1ccccc1-c1ccccc1, the Potency is reported as active: 23.1 µM.
With O=S(=O)(Nc1ccc2c3c(cccc13)CC2)c1ccccc1 the Potency was “inactive”.
For Cc1ccc(CCNS(=O)(=O)c2ccc3c(c2)C(C(C)C)C(=O)N3)cc1 (centres undefined), the Potency was “inactive”.
For CCC(C)Sc1cc(-c2nc3cc(C)ccn3c2NC2CCCCC2)ccc1OC (centres undefined), the Potency was active: 16.4 µM and active: 20.6 µM.
With COc1cccc(Cn2c(=O)n(CC3CCC(C(=O)NC(C)C)CC3)c(=O)c3sccc32)c1 (centres undefined) the Potency was “inactive”.
For CC(CCc1ccccc1)NC(=O)C(=O)c1c[nH]c2ccccc12 (centres undefined), the Potency was “inactive”.
In the case of Cc1ccc(C2=NN(CC(=O)NCCc3ccccc3)C(=O)CC2)cc1, the Potency is reported as “inactive”.
With CC(=O)N1c2ccccc2C(=O)C1N1CCN(c2cccc(Cl)c2)CC1 (centres undefined) the Potency was “inactive”.
With COc1nc(NCCN2CCOCC2)nc(Nc2ccc([N+](=O)[O-])cc2)n1 the Potency was inconclusive: 16.4 µM [cytotoxic, partial curve].
For CCNC(=S)N(Cc1cc2cccc(C)c2[nH]c1=O)C1CCCC1, the Potency was active: 18.4 µM.
With CCCOC1CCCN(C(=O)CCc2nnc(-c3ccc4c(c3)OCO4)o2)C1 (centres undefined) the Potency was inconclusive: 7.31 µM [cytotoxic, partial curve].
With CC1=CC(=O)C(C(C)C)=C/C1=N/OS(=O)(=O)c1ccccc1 the Potency was active: 20.6 µM.
In the case of CSc1ccc(/C=C/C(=O)OCC(=O)NC2CCS(=O)(=O)C2)cc1 (centres undefined), the Potency is reported as “inactive”.
In the case of S=C(NCC1CCCO1)Nc1ccccc1Cl (centres undefined), the Potency is reported as inconclusive: 0.517 µM [rising, full curve].
For Cn1c(N)nc2nc[nH]c2c1=S, the Potency was inconclusive: 29.1 µM [cytotoxic, single point].
With CCOC(=O)c1c(NC(=O)c2cc(=O)c3cc(C)ccc3o2)sc2c1CCCC2 the Potency was “inactive”.
In the case of COc1ccc2nc(-c3ccccc3)[nH]c(=O)c2c1, the Potency is reported as “inactive”.
With COc1ccc(Cl)cc1NC(=O)CSC1=Nc2ccccc2C2=NC(CCC(=O)NCc3ccco3)C(=O)N12 (centres undefined) the Potency was “inactive”.
In the case of CCCCOc1ccc(C(=O)NCC(=O)N2CCN(C/C=C/c3ccccc3)CC2)cc1, the Potency is reported as inconclusive: 18.4 µM [cytotoxic, single point].
For Cc1ccc(/C=N/NC(=O)CCCOc2ccc(Cl)cc2Cl)cc1, the Potency was inconclusive: 23.1 µM [cytotoxic, single point].
In the case of Cc1ccc(NC(=O)COC(=O)c2cc(-c3cccs3)nn2-c2ccccc2)cc1[N+](=O)[O-], the Potency is reported as inconclusive: 18.4 µM [cytotoxic, single point].
With COc1ccccc1NC(=O)c1oc2ccccc2c1NC(=O)c1ccco1 the activity change, negative = cytotoxicity was inconclusive: -65.9%.
For O=C(CSc1ccccc1F)NC(=O)c1ccccc1Br, the Potency was “inactive”.
With COCCOC(=O)c1[nH]c2c(c1C)C(=O)CC(c1ccc(F)cc1)C2 (centres undefined) the Potency was inconclusive: 7.31 µM [cytotoxic, partial curve, poor fit].
For Cc1cc2cc(CN(Cc3ccc4c(c3)OCO4)Cc3nnnn3C3CCCC3)c(=O)[nH]c2cc1C, the Potency was inconclusive: 20.6 µM [cytotoxic, partial curve].
With O=C(CN1CCOCC1)NNc1c2ccccc2nc2ccccc12 the Potency was inconclusive: 29.1 µM [rising, single point].
In the case of COc1ccc(C(OCC(O)CNCCc2ccc(S(N)(=O)=O)cc2)c2ccc(OC)cc2)cc1 (centres undefined), the Potency is reported as inconclusive: 29.1 µM [rising, single point].
With Cn1c(=NC(=O)CCl)sc2ccccc21 the Potency was inconclusive: 20.6 µM [cytotoxic, single point].
With Cc1cccc(-c2cc(C(=O)Nc3ccc4c(c3)OCCO4)c3ccccc3n2)c1 the Potency was inconclusive: 23.1 µM [cytotoxic, single point].
With COC(=O)CN1CCN(C(=O)c2ccco2)CC1 the Potency was “inactive”.
In the case of Cc1ccc(S(=O)(=O)N2CCN(Cc3ccccc3Cl)CC2)cc1, the Potency is reported as inconclusive: 18.4 µM [cytotoxic, partial curve, poor fit].
In the case of O=C(Nc1ccc(N2CCOCC2)cc1)C1CCCCN1S(=O)(=O)c1ccccc1 (centres undefined), the Potency is reported as inconclusive: 11.6 µM [cytotoxic, partial curve].
In the case of Cc1cccn2cc(-c3ccc(S(=O)(=O)N4CCOCC4)cc3)nc12, the Potency is reported as active: 2.31 µM.
In the case of CCN1CCN(c2sc(S(=O)(=O)CC)nc2S(=O)(=O)c2ccc(C)cc2)CC1, the Potency is reported as inconclusive: 5.17 µM [cytotoxic, partial curve].
With CSc1ccc(CN(C)CC(=O)NCc2ccccc2)cc1 the Potency was inconclusive: 16.4 µM [cytotoxic, single point].
In the case of Cc1ccc(Cn2c(C(=O)O)c(CNCc3ccc(C)o3)c3ccc(C)cc32)cc1, the Potency is reported as “inactive”.
With Cc1cccc(NC(=O)CN2C(=O)C3(SCC(=O)N3c3ccccc3)c3ccccc32)c1 (centres undefined) the Potency was inconclusive: 29.1 µM [cytotoxic, single point].
For CCOC(=O)/C=C1\SCC(=O)N1CC(=O)Nc1cccc(F)c1, the Potency was “inactive”.
With O=C(CSc1nc2ccccc2c(=O)n1CCCO)NCc1ccccc1 the Potency was “inactive”.
In the case of C=C(C)Cn1c(N2CCCC2)nc2c1c(=O)[nH]c(=O)n2C, the Potency is reported as inconclusive: 29.1 µM [rising, single point].
In the case of Cc1cccc(CC(=O)NCC(=O)NCc2cc(=O)n(C)c(=O)n2C)c1, the Potency is reported as inconclusive: 29.1 µM [rising, single point].
In the case of CC1(c2ccc(OC(F)F)cc2)NC(=O)N(CC(=O)NC2CCCCC2)C1=O (centres undefined), the Potency is reported as inconclusive: 16.4 µM [cytotoxic, single point].
With Cc1ccc(C)c(-c2cc(C(=O)NNC(=S)NCC(C)C)c3ccccc3n2)c1 the Potency was inconclusive: 29.1 µM [cytotoxic, single point].
With N#Cc1nc(-c2cccs2)oc1NCCN1CCOCC1 the Potency was inconclusive: 18.4 µM [cytotoxic, single point].
In the case of Cc1noc(NS(=O)(=O)c2ccc(N/C=C\C(=O)c3ccc4c(c3)OCO4)cc2)c1C, the Potency is reported as “inactive”.
For CS(=O)(=O)c1ccc(C(=O)OCC(=O)NC(=O)NC2CCCCC2)cc1[N+](=O)[O-], the Potency was “inactive”.
With COC(=O)c1ccc(N2CCN(c3ccccc3)CC2)c(N)c1 the Potency was “inactive”.
In the case of C=CCN([C@H](C(=O)OC)C(C)C)S(=O)(=O)CCNCc1ccccc1, the Potency is reported as “inactive”.
In the case of [O-][n+]1c2c(nn1-c1ccccc1Cl)-c1nonc1CC2, the Potency is reported as “inactive”.
In the case of CCOc1c(Br)cc(CNc2ccc3c(c2)OCCO3)cc1OC, the Potency is reported as active: 4.11 µM.
In the case of O=C(NCc1ccccc1)OCCN1CCN(Cc2ccccc2)CCC1=O, the Potency is reported as “inactive”.
With Cn1c(NCc2ccccc2)nc2c1c(=O)n(Cc1ccccc1)c(=O)n2C the Potency was inconclusive: 16.4 µM [cytotoxic, partial curve, poor fit].
For O=[N+]([O-])c1ccc(O)c(/C=N/n2cnc3ccccc32)c1, the Potency was inconclusive: 18.4 µM [cytotoxic, single point].
For CCc1cccc(NC(=O)COC(=O)c2cc([N+](=O)[O-])ccc2N2CCOCC2)c1, the Potency was inconclusive: 25.9 µM [cytotoxic, partial curve, poor fit].
For COc1cnc(SCc2c(Cl)cccc2Cl)nc1Cl, the Potency was inconclusive: 9.2 µM [rising, partial curve, poor fit].
